Reference: PubChem BioAssay AID493014 (National Center for Advancing Translational Sciences (NCATS), 2011)
In all, about 340,000 compounds went through this assay and about 170 (0.05%) were called active. This list was built around the results that the source calls inconclusive (neither active nor inactive); the mix of calls is not that of the screen. Calls follow the shape of the dose curve; as a rule, active = well fitted inhibition curve with a large enough effect in the signal ratio, with a control signal flat (not every such curve was filed as active); inconclusive = small, poorly fitted or top-dose-only effect, or effect the other way, or a change in a side signal; inactive = flat fitted curve, though single readings scatter; the % refers to the signal ratio. Where the call is inconclusive, the potency comes from a doubtful curve fit.

Test: qHTS Assay to Find Inhibitors of Chronic Active B-Cell Receptor Signaling;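 as to activity change, negative = inhibition: plate controls were basal doxycycline-induced cells for no effect and cells given 10 µM MG132 for full effect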
Conditions: ABC-DLBCL IkBa-CBG/CBR reporter, luminescence ratio (green luciferase fused to IkBa over red control in TMD8 lymphoma cells), 4 h; activity change, negative = inhibition: at 46.1 µM (top of the series)
In short: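 TMD8 human ABC-DLBCL cells with doxycycline-inducible IκBα–green luciferase fusion and unfused red luciferase, in 0.5% FBS medium; compounds up to 46 uM, 4 h at 37C. Green/red luminescence ratio, filter-overlap corrected, fitted to concentration-response curves.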
Potency is read from the fitted curve at half-maximal effect.

Row | SMILES | activity change, negative = inhibition | Potency
1 | COc1ccc2ccccc2c1/C=N/NC(=O)c1ccc([N+](=O)[O-])cc1 | inconclusive: 0.559% | 
2 | CC(=O)Nc1ccc(S(=O)(=O)NCC(=O)N2CCN(S(=O)(=O)c3cccs3)CC2)cc1 | inactive: -4.26% | 
3 | COc1ccc(N(CC(=O)Nc2ccccc2C)S(=O)(=O)c2ccccc2[N+](=O)[O-])c(OC)c1 | inactive: 1.16% | 
4 | COc1ccccc1-n1cnc2cc(C(=O)NC3CCCC3)ccc21 |  | inconclusive: 14.6 µM [falling, partial curve, poor fit]
5 | Cc1ccccc1Cn1c(C(C)O)nc2ccccc21 (stereo not drawn) | inactive: -2.63% | 
6 | CCCOC(=O)c1ccc(NC(=O)COC)cc1 |  | inconclusive: 4.11 µM [rising, partial curve, poor fit]
7 | O=C(CSCc1ccco1)c1ccc(Cl)s1 | inconclusive: 8.93% | 
8 | Fc1ccccc1/C=C/c1ccc2ccccc2n1 |  | inconclusive: 16.4 µM [falling, partial curve]
9 | Cc1ccc(C)c(C(=O)CCC(=O)Nc2ccc(N3CCN(C)CC3)cc2C)c1 | inactive: -0.272% | 
10 | CCCOc1ccc(C(=O)N/N=C/c2c[nH]c3ccc(Br)cc23)cc1 | inactive: 1.79% | 
11 | COc1cc(NC(=O)CSc2nccc(C)n2)c(C)cc1[N+](=O)[O-] | inconclusive: -7.57% | 
12 | Cc1cccc(NC(=O)C(C)Sc2nc3nc(C)cc(C)n3n2)c1 (stereo not drawn) | inactive: -0.007% | 
13 | CCc1cc(N2CCOCC2)cc2c1[nH]c1ccccc12 | inconclusive: -1.56% | 
14 | Cc1ccc(C(=O)NCCC2=CCCCC2)cc1S(=O)(=O)N1CCOCC1 | inconclusive: 0.551% | 
15 | CCCCN(C)S(=O)(=O)c1cc(-c2nnc3c4ccccc4c(C)nn23)ccc1C | inactive: 8.97% | 
16 | CN(CCOc1ccccc1)C(=O)c1ccc(OC2CCN(C(=O)C3CC3)CC2)cc1 | inconclusive: 13.1% | 
17 | CCOc1ccc(OCC(=O)OCC(=O)NCC2CCCO2)cc1 (stereo not drawn) | inconclusive: 6.99% | 
18 | CCOC(=O)c1c(NC(C)=O)sc2c(O)cccc12 | inconclusive: -0.68% | 
19 | Cc1ccc(Cl)cc1NC(=O)COC(=O)CC(C)(C)C |  | inconclusive: 17.8 µM [falling, partial curve, poor fit]
20 | N#CCCn1c(=S)[nH]c2ccccc21 |  | inconclusive: 18.4 µM [falling, partial curve, poor fit]
21 | Cc1nn(C)c(C(=O)Sc2ccccc2)c1[N+](=O)[O-] | inconclusive: 2.34% | 

Row | SMILES | activity change, negative = inhibition | Potency
22 | N/C(=N\O)c1ccc(NC(=O)c2cccs2)cc1 |  | inconclusive: 10 µM [falling, partial curve]
23 | c1ccc(Cn2ncc3c(NCc4ccco4)ncnc32)cc1 | inactive: -1% | 
24 | COC(=O)c1[nH]c2ccccc2c1NS(=O)(=O)c1ccc(OC)cc1OC | inconclusive: -3.3% | 
25 | CC1=CC(C)C(/C=N/N=C(N)N)C(C)C1 (stereo not drawn) | inconclusive: -9.07% | 
26 | CCn1c(=O)[nH]c(=O)c2c(N)c(C(=O)c3ccccc3OC)sc21 | inconclusive: -1.71% | 
27 | CCOC(=O)c1c(SCC(=O)Nc2nc3ccc(C)cc3s2)nc(=O)[nH]c1C | inactive: -5.51% | 
28 | CN(C)S(=O)(=O)c1ccc2c(c1)c(=O)c(C(=O)N1CCN(c3ccccn3)CC1)cn2C | inconclusive: 7.83% | 
29 | Oc1ccc(Nc2nc(N3CCCC3)c3ccccc3n2)cc1 | inconclusive: 4.57% | 
30 | CC(C)N(C(=S)NCc1ccccc1)C(C)C | inconclusive: 9.32% | 
31 | Cc1cc(C(=O)COC(=O)c2ccc(O)cc2)c(C)n1CCc1ccc(F)cc1 | inconclusive: -23.2% | 
32 | CSC1=N/C(=C\c2ccc(Cl)cc2)C(=O)N1N(C)C | inconclusive: 11.7% | 
33 | COc1ccc(C(=O)N/N=C/c2ccc3cccc(O)c3n2)cc1 | inconclusive: 0.445% | 
34 | Cc1ccccc1NC(=O)c1cccc(N2C(=O)C3CCCCC3C2=O)c1 (stereo not drawn) | inconclusive: -25.4% | 
35 | Oc1ccccc1N1CCN(c2ncnc3scc(-c4ccccc4)c23)CC1 | inconclusive: 5.5% | 
36 | CC1(C)C2CC=C(/C=N/NC(=O)C3CC3)C1C2 (stereo not drawn) | inconclusive: 0.998% | 
37 | O=C(CSc1ccc(Cl)cc1)NC(=O)NCc1ccco1 | inactive: -2.92% | 
38 | COc1ccc2oc(-c3ccc(C)c(NC(=O)c4cccnc4)c3)nc2c1 | inconclusive: 18.6% | 
39 | C/C(=N/NC(N)=S)c1ccc(Br)s1 |  | active: 20 µM
40 | COc1ccccc1-n1cnc2cc(NC(C)=O)ccc21 |  | inconclusive: 23.1 µM [falling, partial curve]
41 | O=C(NC1CCCCC1)NC1CC2CCC(C1)N2Cc1nnnn1Cc1ccc2c(c1)OCO2 (stereo not drawn) | inconclusive: -2.42% | 
42 | COc1cc(C(=O)Nc2ccc(S(=O)(=O)NC(C)(C)C)cc2)cc(OC)c1OC | inconclusive: -11.5% | 

Row | SMILES | activity change, negative = inhibition | Potency
43 | Cc1cc(C)c(NC(=S)N(C)C)c(C)c1 | inconclusive: -7.63% | 
44 | Cc1cc(C)c(C)c(OCCOCCNCc2ccccc2)c1 | inconclusive: -15.8% | 
45 | O=C(NC1CCN(Cc2ccccc2)CC1)c1ccccc1OCc1ccccc1Cl | inconclusive: 2.88% | 
46 | CC(=O)c1cc(-c2ccc(F)cc2)n(CCC(=O)Nc2cc(C)[nH]n2)c1C |  | inconclusive: 6.51 µM [falling, single point]
47 | O=C(Nc1ccccc1)N1CCc2ccccc21 |  | inconclusive: 23.1 µM [falling, partial curve]
48 | O=C(Nc1cccc(F)c1)Nc1ccnn1C1CCN(C(=O)c2cscn2)CC1 | inconclusive: -1.05% | 
49 | O=C(COc1ccc2c(-c3ccccc3)cc(=O)oc2c1)NCc1cccs1 |  | inconclusive: 10 µM [rising, partial curve, poor fit]
50 | CCC(Sc1nc2ccccc2o1)C(=O)Nc1nnc(C)s1 (stereo not drawn) |  | inconclusive: 29.1 µM [cytotoxic, single point]
51 | Nc1cc(C(=O)N2CCN(c3ccc([N+](=O)[O-])cc3)CC2)ccc1N1CC2CC(C1)c1cccc(=O)n1C2 (stereo not drawn) | inactive: -0.482% | 
52 | CCc1ccc2c(COC(=O)CNS(=O)(=O)c3ccc(NC(C)=O)cc3)cc(=O)oc2c1 | inconclusive: -1.7% | 
53 | CSc1ccccc1NC(=O)c1ccncc1 | inconclusive: 4.45% | 
54 | COc1ccc(C(=O)COC(=O)c2n[nH]c3ccccc23)c(OC)c1 |  | inconclusive: 8.2 µM [falling, partial curve]
55 | COCCNC(=O)c1c(N)n(CCCn2ccnc2)c2nc3ccccc3nc12 | inconclusive: 6.21% | 
56 | C[N+](C)(CC#Cc1ccccc1)CC(=O)c1ccccc1 | inactive: 1.04% | 
57 | O=C(NCc1cccs1)C1CC(=O)N(c2ccc(Cl)cc2)C1 (stereo not drawn) | inconclusive: -1.57% | 
58 | O=C(CSc1cccc[n+]1[O-])c1ccccc1Br |  | inconclusive: 2.51 µM [cytotoxic, partial curve]
59 | Cc1ccc(-c2cc(C(F)(F)F)n3nc(C(=O)NCCCn4ccnc4)cc3n2)cc1C | inconclusive: 1.72% | 
60 | CCOc1cc(/C=C2\N=C(SC)SC2=O)cc([N+](=O)[O-])c1OC(C)=O | inconclusive: -1.3% | 
61 | CC(C)c1nnc(NC(=O)C2CCCN2S(=O)(=O)c2ccc(Cl)cc2)s1 (stereo not drawn) | inconclusive: 1.97% | 
62 | CC(O)CNc1nc2ccccc2n1-c1ncnc2sc3c(c12)CCC3 (stereo not drawn) | inconclusive: -14.3% | 
63 | CSc1ccccc1C(=O)Nc1cccc(C(C)=O)c1 | inconclusive: 9.1% | 

Reformatted as labelled records: part of the list above.
CCCOC(=O)c1ccc(NC(=O)COC)cc1
  Potency: inconclusive: 4.11 µM [rising, partial curve, poor fit]
O=C(CSCc1ccco1)c1ccc(Cl)s1
  activity change, negative = inhibition: inconclusive: 8.93%
Fc1ccccc1/C=C/c1ccc2ccccc2n1
  Potency: inconclusive: 16.4 µM [falling, partial curve]

Grouped by structure: those above containing bromine.
Row | SMILES | activity change, negative = inhibition | Potency
10 | CCCOc1ccc(C(=O)N/N=C/c2c[nH]c3ccc(Br)cc23)cc1 | inactive: 1.79% | 
39 | C/C(=N/NC(N)=S)c1ccc(Br)s1 |  | active: 20 µM
58 | O=C(CSc1cccc[n+]1[O-])c1ccccc1Br |  | inconclusive: 2.51 µM [cytotoxic, partial curve]

Next structures:

Row | SMILES | activity change, negative = inhibition | Potency
64 | C=CCCCCCCCCc1nc(SCC(=O)O)n[nH]1 | inconclusive: -0.538% | 
65 | Cc1cccc(C(=O)Nc2nnc(-c3ccncc3)o2)c1 |  | inconclusive: 35.5 µM [rising, single point]
66 | COc1ccc(Cl)cc1C(=O)NNC(=O)COC(=O)c1cccs1 | inconclusive: 1.38% | 
67 | COc1cc(/C=C/C(=O)Nc2ccc(C(C)=O)cc2)cc(OC)c1OC | inconclusive: -5.49% | 
68 | Cc1ccc(C)c(SCC(=O)Nc2cc(C)nn2-c2ccc(F)cc2)c1 | inconclusive: 8.78% | 
69 | O=C(COc1coc(CN2CCN(c3ccccc3)CC2)cc1=O)Nc1ccc(F)cc1 | inconclusive: 0% | 
70 | CC(C)C(c1nnnn1Cc1ccccc1)N1CCc2ccccc2C1 (stereo not drawn) | inactive: 16.1% | 
71 | Cc1cc(C)n2c3c(c(C#N)c2n1)CCCC3 |  | inconclusive: 2.91 µM [falling, partial curve, poor fit]
72 | O=C1c2ccccc2C(=O)N1CCc1nc(-c2ccccn2)no1 | inactive: -9.72% | 
73 | CCOc1ccc(NC(=S)N2CCc3cc(OC)c(OC)cc3C2COc2ccc3c(C)cc(=O)oc3c2)cc1 (stereo not drawn) | inconclusive: -0.0852% | 
74 | CCc1ccc(C(=O)CSc2ncn[nH]2)cc1 | inconclusive: -16.9% | 
75 | O=S(=O)(c1ccccc1)C(/C=N\O)/C=C/c1ccccc1 (stereo not drawn) | inconclusive: -6.46% | 
76 | CC(C(=O)Nc1ccccc1)N1CCN(C(=O)c2ccco2)CC1 (stereo not drawn) | inactive: -2.88% | 
77 | Cc1ccc2nc(-c3ccc(O)cc3)c(Nc3ccc4c(c3)OCCO4)n2c1 |  | inconclusive: 12.6 µM [falling, partial curve]
78 | Cc1cccc(C=Nc2ccccc2C(N)=O)c1 | inconclusive: -5.56% | 
79 | COc1ccc(N2CCN(C(=O)C3CCCO3)CC2)cc1 (stereo not drawn) | inconclusive: 9.98% | 
80 | Cc1c(Cl)c([N+](=O)[O-])nn1Cc1ccc(C(=O)N/N=C\c2cccc(Br)c2)o1 |  | inconclusive: 8.91 µM [falling, partial curve, poor fit]
81 | O=C(NCc1ccccc1Cl)C(=O)NCC(c1cccs1)S(=O)(=O)c1cccs1 (stereo not drawn) |  | inconclusive: 35.5 µM [falling, single point]
82 | O=C1c2ccccc2C(O)N1c1ccc(Cl)cc1 (stereo not drawn) |  | inconclusive: 4.11 µM [rising, partial curve]
83 | CCOC(=O)c1c(NC(C)=O)sc2c1CCC(C=O)=C2Sc1ccccc1 |  | inconclusive: 14.6 µM [rising, single point]
